Laboratory results taken from patent US20260070917A1, “CYCLIN DEPENDENT KINASE DEGRADERS AND METHODS OF USE THEREOF” (Differentiated Therapeutics Inc, priority 2023, published 2026).

By UniProt entry, the sequences of proteins in these tests, tags left out.
UniProt P24864, whole entry: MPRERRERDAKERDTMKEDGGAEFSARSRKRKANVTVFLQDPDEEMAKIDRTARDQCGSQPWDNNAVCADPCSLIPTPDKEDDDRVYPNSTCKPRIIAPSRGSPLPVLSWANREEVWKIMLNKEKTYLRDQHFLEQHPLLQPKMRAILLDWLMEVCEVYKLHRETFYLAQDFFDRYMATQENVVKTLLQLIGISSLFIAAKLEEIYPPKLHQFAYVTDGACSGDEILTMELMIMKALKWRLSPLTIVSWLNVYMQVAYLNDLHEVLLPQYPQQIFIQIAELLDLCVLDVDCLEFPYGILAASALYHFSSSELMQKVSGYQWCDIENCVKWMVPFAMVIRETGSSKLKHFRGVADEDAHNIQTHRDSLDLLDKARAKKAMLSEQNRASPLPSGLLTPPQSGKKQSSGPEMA
UniProt P50750, whole entry: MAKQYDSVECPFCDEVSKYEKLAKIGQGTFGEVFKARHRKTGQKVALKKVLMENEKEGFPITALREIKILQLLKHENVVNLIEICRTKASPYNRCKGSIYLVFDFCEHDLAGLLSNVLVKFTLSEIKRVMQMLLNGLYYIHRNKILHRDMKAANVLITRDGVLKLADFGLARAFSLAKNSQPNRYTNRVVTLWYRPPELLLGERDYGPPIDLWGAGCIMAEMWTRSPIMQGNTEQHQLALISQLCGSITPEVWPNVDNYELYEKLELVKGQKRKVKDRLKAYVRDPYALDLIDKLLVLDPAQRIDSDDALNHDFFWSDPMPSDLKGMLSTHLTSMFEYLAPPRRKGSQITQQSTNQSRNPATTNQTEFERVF

Molecular target: CDK2 (Homo sapiens, UniProt P24941)
Experiment: HiBit Assay Protocol for CDK2 (HIBIT protein quantification, degradation)
Conditions: HEK293-CDK2-Hibit cells, compound treatment for 6 hours

Question: How did the “CDK2 HIBIT Protein Quantification Maximum” value turn out when `CC1CCCC1N1C(=O)C2(CC2)c2cnc(NC3CCN(S(=O)(=O)N4CC(N(C)C(=O)CCCCCc5ccc6c(c5)n(C)c(=O)n6C5CCC(=O)NC5=O)C4)CC3)nc21` (stereo not drawn) was run?
Answer: Its value is 52%.

Question: For `CC1CCCC1N1C(=O)C2(CC2)c2cnc(NC3CCN(S(=O)(=O)N4CC5C4CCN5C(=O)CCCCCc4cccc5c4n(C)c(=O)n5C4CCC(=O)NC4=O)CC3)nc21` (stereo not drawn), which “CDK2 HIBIT Protein Quantification Maximum” value is on record?
Answer: Its value is 65%.

Question: With `CC1CCCC1N1C(=O)C2(CC2)c2cnc(NC3CCN(S(=O)(=O)N4CC(N(C)C(=O)CCCCCCCc5cccc6c5n(C)c(=O)n6C5CCC(=O)NC5=O)C4)CC3)nc21` (stereo not drawn) as the molecule, how does the “CDK2 HIBIT Protein Quantification Maximum” value read?
Answer: Its value is 59%.

Same assay, conditions: read-out: CDK2 HIBIT Protein Quantification DC50; HEK293-CDK2-Hibit cells, compound treatment for 6 hours, ABS DC50

Question: Which DC50 does the source give for `CC1CCCC1N1C(=O)C2(CC2)c2cnc(NC3CCN(S(=O)(=O)N4CC(N(C)C(=O)CCCCCc5ccc6c(c5)n(C)c(=O)n6C5CCC(=O)NC5=O)C4)CC3)nc21` (stereo not drawn) here?
Answer: Its DC50 is 3 nM.

Question: `CC1CCCC1N1C(=O)C2(CC2)c2cnc(NC3CCN(S(=O)(=O)N4CC5C4CCN5C(=O)CCCCCc4cccc5c4n(C)c(=O)n5C4CCC(=O)NC4=O)CC3)nc21` (stereo not drawn) was tested. Which DC50 did it give?
Answer: The DC50 was 11 nM.

Question: With `CC1CCCC1N1C(=O)C2(CC2)c2cnc(NC3CCN(S(=O)(=O)N4CC(N(C)C(=O)CCCCCCCc5cccc6c5n(C)c(=O)n6C5CCC(=O)NC5=O)C4)CC3)nc21` (stereo not drawn) as the molecule, how does the DC50 read?
Answer: Its DC50 is 8 nM.

Molecular target: CCNE1 (Homo sapiens, UniProt P24864)
Experiment: HiBit Assay Protocol for CCNE1 (HIBIT protein quantification, degradation)
Conditions: HEK293-CCNE1-Hibit cells, compound treatment for 6 hours

Question: How did the “CCNE1 HIBIT Protein Quantification Maximum” value turn out when `CC1CCCC1N1C(=O)C2(CC2)c2cnc(NC3CCN(S(=O)(=O)N4CC(N(C)C(=O)CCCCCc5ccc6c(c5)n(C)c(=O)n6C5CCC(=O)NC5=O)C4)CC3)nc21` (stereo not drawn) was run?
Answer: Its value is 19%.

Question: `CC1CCCC1N1C(=O)C2(CC2)c2cnc(NC3CCN(S(=O)(=O)N4CC5C4CCN5C(=O)CCCCCc4cccc5c4n(C)c(=O)n5C4CCC(=O)NC4=O)CC3)nc21` (stereo not drawn) was tested. Which “CCNE1 HIBIT Protein Quantification Maximum” value did it give?
Answer: Its value is 15%.

Question: For `CC1CCCC1N1C(=O)C2(CC2)c2cnc(NC3CCN(S(=O)(=O)N4CC(N(C)C(=O)CCCCCCCc5cccc6c5n(C)c(=O)n6C5CCC(=O)NC5=O)C4)CC3)nc21` (stereo not drawn), which “CCNE1 HIBIT Protein Quantification Maximum” value is on record?
Answer: The value was 18%.

Molecular target: CDK9 (Homo sapiens, UniProt P50750)
Experiment: HiBit Assay Protocol for CDK9 (HIBIT protein quantification, degradation)
Conditions: HEK293-CDK9-Hibit cells, compound treatment for 6 hours

Question: How did the “CDK9 HIBIT Protein Quantification Maximum” value turn out when `CC1CCCC1N1C(=O)C2(CC2)c2cnc(NC3CCN(S(=O)(=O)N4CC(N(C)C(=O)CCCCCc5ccc6c(c5)n(C)c(=O)n6C5CCC(=O)NC5=O)C4)CC3)nc21` (stereo not drawn) was run?
Answer: Its value is 41%.

Question: How did the “CDK9 HIBIT Protein Quantification Maximum” value turn out when `CC1CCCC1N1C(=O)C2(CC2)c2cnc(NC3CCN(S(=O)(=O)N4CC5C4CCN5C(=O)CCCCCc4cccc5c4n(C)c(=O)n5C4CCC(=O)NC4=O)CC3)nc21` (stereo not drawn) was run?
Answer: Its value is 33%.

Question: Which “CDK9 HIBIT Protein Quantification Maximum” value does the source give for `CC1CCCC1N1C(=O)C2(CC2)c2cnc(NC3CCN(S(=O)(=O)N4CC(N(C)C(=O)CCCCCCCc5cccc6c5n(C)c(=O)n6C5CCC(=O)NC5=O)C4)CC3)nc21` (stereo not drawn) here?
Answer: Its value is 41%.

Structures were worked out from names or drawings and are uncertain.
